3 substances from PMC12781089 can be followed below.

Protein sequences, listed by entry. Tags and fused reporters are not part of them. Lines headed by an entry give the natural chain unless they say otherwise; changes in a name come on top. Residues count along the entry.
UniProt P38647, residues 47-679: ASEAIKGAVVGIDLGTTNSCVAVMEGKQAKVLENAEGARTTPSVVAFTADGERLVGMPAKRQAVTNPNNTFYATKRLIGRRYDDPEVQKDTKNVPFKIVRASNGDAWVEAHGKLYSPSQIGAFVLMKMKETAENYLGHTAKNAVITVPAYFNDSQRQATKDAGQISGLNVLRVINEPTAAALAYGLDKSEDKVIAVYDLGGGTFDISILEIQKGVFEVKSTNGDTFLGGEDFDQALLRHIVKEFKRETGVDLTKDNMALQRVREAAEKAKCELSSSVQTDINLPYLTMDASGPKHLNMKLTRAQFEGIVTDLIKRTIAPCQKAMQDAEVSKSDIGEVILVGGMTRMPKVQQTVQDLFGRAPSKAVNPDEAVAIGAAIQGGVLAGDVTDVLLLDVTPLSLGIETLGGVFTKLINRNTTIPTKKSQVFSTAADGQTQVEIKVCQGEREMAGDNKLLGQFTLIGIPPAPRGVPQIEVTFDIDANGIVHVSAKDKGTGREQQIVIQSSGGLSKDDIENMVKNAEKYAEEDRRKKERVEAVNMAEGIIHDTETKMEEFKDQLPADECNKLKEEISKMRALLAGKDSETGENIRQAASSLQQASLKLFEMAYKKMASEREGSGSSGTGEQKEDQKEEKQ
UniProt Q60932: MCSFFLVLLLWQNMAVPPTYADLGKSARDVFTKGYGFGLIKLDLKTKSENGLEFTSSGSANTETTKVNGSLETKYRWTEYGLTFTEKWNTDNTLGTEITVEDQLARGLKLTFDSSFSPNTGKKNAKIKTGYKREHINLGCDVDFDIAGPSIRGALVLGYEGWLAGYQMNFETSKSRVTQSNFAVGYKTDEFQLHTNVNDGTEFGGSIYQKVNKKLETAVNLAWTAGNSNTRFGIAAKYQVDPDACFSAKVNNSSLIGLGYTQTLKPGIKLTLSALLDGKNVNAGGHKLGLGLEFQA
UniProt P11881: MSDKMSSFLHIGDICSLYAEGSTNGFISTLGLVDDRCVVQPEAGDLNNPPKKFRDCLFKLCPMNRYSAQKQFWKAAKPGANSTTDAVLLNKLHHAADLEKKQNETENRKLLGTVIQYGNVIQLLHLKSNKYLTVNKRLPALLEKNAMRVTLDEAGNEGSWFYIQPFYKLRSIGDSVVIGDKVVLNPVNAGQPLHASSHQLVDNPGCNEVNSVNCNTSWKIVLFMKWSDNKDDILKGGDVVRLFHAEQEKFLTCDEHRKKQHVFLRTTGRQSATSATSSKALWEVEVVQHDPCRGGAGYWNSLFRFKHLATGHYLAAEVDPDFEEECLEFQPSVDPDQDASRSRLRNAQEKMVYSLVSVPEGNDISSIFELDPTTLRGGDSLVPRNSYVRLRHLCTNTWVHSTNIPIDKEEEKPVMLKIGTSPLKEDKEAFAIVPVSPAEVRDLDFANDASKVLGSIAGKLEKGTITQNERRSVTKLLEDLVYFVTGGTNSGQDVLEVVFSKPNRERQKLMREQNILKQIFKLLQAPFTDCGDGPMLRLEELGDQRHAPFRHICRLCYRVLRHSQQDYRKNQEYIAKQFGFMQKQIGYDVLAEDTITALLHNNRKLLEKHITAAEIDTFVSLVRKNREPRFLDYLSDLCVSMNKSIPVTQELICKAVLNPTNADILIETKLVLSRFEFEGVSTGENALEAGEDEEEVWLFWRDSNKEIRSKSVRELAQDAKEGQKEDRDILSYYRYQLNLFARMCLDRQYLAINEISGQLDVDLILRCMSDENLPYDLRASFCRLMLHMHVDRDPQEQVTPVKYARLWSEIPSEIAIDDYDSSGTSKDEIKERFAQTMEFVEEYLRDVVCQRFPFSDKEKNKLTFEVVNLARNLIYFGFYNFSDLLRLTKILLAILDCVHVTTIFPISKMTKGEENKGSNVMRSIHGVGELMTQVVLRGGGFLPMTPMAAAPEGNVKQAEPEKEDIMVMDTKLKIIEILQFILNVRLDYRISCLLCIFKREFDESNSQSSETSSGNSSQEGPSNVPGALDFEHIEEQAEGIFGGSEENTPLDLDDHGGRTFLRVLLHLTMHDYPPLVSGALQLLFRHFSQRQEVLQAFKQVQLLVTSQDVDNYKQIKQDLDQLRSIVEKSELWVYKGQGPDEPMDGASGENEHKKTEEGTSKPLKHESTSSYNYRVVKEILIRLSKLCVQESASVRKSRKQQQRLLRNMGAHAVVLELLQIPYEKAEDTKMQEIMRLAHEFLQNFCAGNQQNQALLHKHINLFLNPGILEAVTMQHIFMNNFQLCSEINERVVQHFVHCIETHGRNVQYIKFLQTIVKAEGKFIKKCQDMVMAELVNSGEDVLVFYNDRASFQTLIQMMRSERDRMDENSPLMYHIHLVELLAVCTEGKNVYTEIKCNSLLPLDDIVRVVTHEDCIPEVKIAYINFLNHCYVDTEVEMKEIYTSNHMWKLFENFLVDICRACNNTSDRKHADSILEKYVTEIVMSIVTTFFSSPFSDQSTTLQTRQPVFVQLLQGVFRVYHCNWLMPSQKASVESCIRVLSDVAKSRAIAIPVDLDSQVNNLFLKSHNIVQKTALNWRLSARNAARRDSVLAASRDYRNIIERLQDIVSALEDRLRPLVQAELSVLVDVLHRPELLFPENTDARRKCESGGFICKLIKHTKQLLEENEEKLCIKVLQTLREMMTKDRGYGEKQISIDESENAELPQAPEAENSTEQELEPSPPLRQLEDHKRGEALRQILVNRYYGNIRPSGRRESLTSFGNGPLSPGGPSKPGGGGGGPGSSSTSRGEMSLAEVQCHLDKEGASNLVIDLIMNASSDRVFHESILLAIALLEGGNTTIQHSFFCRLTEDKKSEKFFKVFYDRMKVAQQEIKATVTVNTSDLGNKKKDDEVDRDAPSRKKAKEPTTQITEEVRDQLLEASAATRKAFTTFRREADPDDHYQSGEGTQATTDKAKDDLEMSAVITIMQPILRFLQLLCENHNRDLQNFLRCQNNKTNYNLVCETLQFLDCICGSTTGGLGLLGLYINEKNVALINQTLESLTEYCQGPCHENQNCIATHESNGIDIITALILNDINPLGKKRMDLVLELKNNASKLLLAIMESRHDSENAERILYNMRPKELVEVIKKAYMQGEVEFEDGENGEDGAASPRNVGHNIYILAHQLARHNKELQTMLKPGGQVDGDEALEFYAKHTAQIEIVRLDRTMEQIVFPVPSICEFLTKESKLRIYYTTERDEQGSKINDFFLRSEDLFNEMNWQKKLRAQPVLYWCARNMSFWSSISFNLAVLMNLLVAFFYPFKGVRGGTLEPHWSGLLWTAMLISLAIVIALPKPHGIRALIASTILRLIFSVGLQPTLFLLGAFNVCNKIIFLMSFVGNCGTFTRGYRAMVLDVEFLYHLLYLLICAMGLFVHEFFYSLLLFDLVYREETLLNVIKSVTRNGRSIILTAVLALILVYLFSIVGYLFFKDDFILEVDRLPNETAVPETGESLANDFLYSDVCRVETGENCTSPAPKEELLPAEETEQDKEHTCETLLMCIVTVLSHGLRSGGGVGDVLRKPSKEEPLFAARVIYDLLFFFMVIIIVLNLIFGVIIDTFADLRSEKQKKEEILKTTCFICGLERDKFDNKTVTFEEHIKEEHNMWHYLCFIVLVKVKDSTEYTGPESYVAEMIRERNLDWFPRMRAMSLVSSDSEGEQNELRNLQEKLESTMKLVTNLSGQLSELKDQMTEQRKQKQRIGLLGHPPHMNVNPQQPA

These are yes or no findings as the source states them, for the method shown. In cells and extracts the contact can be indirect. A yes stands for co-enrichment or nearness to the bait. Other partners may have been found.

The test concerns the target T1, Parkin (mouse brain) (mouse (endogenous in brain)) (UniProt Q9WVS6).
T1 sequence: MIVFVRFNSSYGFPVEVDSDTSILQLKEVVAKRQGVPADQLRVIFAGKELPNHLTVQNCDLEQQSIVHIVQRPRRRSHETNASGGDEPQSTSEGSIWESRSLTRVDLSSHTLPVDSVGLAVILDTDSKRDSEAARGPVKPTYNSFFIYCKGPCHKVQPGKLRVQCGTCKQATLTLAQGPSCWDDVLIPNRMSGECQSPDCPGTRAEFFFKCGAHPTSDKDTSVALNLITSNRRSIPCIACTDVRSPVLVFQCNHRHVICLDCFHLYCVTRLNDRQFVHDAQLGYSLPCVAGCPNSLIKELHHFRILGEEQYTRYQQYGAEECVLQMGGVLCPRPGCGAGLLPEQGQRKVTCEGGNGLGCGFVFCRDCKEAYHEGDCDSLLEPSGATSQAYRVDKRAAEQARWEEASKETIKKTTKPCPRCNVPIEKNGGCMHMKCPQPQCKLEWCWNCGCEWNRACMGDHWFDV
The test is described as follows: affinity purification with mass spectrometry; Parkin immunoprecipitated from substantia nigra of mouse brain, gel bands, LC-MS/MS.
Regarding “Grp75, mouse brain (from UniProt P38647 47-679)”, the binding entry is recorded as “binds”.
Take “VDAC1, mouse brain (from UniProt Q60932)”: the binding result was “binds”.
As to “inositol-1,4,5-triphosphate receptor (IP3R), mouse brain (from UniProt P11881 1-2749)”, the binding result is “binds”.
